Results are given in words; binding and its absence hold for the method and conditions named. In cells and extracts the contact can be indirect. Tags and fused reporters may be left off the sequences shown.
Assays:
[1] = target: Flag-PYD (NLRP3 pyrin domain); assay: co-IP; both partners cotransfected in HEK-293T cells (polyethylenimine, 24 h); extracts immunoprecipitated (anti-Flag beads 3 h at 4°C, or antibody and protein A/G agarose 12 h at 4°C), washed four times in NP-40 lysis buffer, western blotting (Figures 1A, 1F, 1G)
[2] = target: Flag-LRR (NLRP3 LRR domain); assay: as above

- binding [1]: no binding
- binding [2]: no binding
B1: GFP-TRIM65 (full length) (protein, UniProt Q6PJ69 1-517)
chain: MAAQLLEEKLTCAICLGLYQDPVTLPCGHNFCGACIRDWWDRCGKACPECREPFPDGAELRRNVALSGVLEVVRAGPARDPGPDPGPGPDPAARCPRHGRPLELFCRTEGRCVCSVCTVRECRLHERALLDAERLKREAQLRASLEVTQQQATQAEGQLLELRKQSSQIQNSACILASWVSGKFSSLLQALEIQHTTALRSIEVAKTQALAQARDEEQRLRVHLEAVARHGCRIRELLEQVDEQTFLQESQLLQPPGPLGPLTPLQWDEDQQLGDLKQLLSRLCGLLLEEGSHPGAPAKPVDLAPVEAPGPLAPVPSTVCPLRRKLWQNYRNLTFDPVSANRHFYLSRQDQQVKHCRQSRGPGGPGSFELWQVQCAQSFQAGHHYWEVRASDHSVTLGVSYPQLPRCRLGPHTDNIGRGPCSWGLCVQEDSLQAWHNGEAQRLPGVSGRLLGMDLDLASGCLTFYSLEPQTQPLYTFHALFNQPLTPVFWLLEGRTLTLCHQPGAVFPLGPQEEVLS

Reference: PMC8427430
